Reference: PubChem BioAssay AID248 (DTP/NCI, 2004)
The list shows only some results of the screen, not a fair sample: it gathers tests that were run many times, whatever their T/C, doses with no T/C, and many T/C values between a quarter and a half above the control. Other doses and runs of a compound stand elsewhere. T/C: endpoint of the treated group in % of that of the vehicle group. Some doses have a count of surviving animals in place of a T/C: the source holds a T/C of zero for them, seemingly a mark for toxic or unscored doses. Some doses without a T/C left all or most animals alive at the check, yet need not have been tolerated: survival well below the control is almost never listed, so the zero probably covers shortened survival too. Survivors were counted at the toxicity check, usually on the fifth day, unless a day is given; later deaths do not show. Schedules are NCI's codes, taken here to give the interval after Q, in days (D) or hours (H), and the number of doses after X. Some entries were tested several times; their values stand side by side, smallest first. Some structures stand for samples that the source files as different forms (salt, stereo form or complex); doses refer to the form tested. For survival time, the PubChem record calls one and a half times the control and up active, and a quarter to a half above the control has no call in these data; cut-offs in other NCI protocols can differ.

Test system: L1210 leukemia ip in BDF1 mice, survival T/C
Experiment: NCI In Vivo Anticancer Drug Screen. Data for tumor model L1210 Leukemia (intraperitoneal) in B6D2F1 (BDF1) mice
Conditions: T/C endpoint: mean survival time, higher T/C = longer survival
[1] = dose: 25.0 mg/kg/injection, schedule: Q04DX003 (ip), vehicle: saline
[2] = dose: 40.0 mg/kg/injection, schedule: Q01DX009 (ip), vehicle: saline
[3] = dose: 50.0 mg/kg/injection, schedule: Q04DX003 (ip), vehicle: saline
[4] = dose: 100.0 mg/kg/injection, schedule: Q04DX003 (ip), vehicle: saline
[5] = dose: 200.0 mg/kg/injection, schedule: Q04DX003 (ip), vehicle: saline
[6] = dose: 400.0 mg/kg/injection, schedule: Q04DX003 (ip), vehicle: saline
[7] = dose: 200.0 mg/kg/injection, schedule: Q01DX009 (ip), vehicle: saline with Tween-80
[8] = dose: 400.0 mg/kg/injection, schedule: Q01DX009 (ip), vehicle: saline with Tween-80
[9] = dose: 400.0 mg/kg/injection, schedule: Q01DX001 (ip), vehicle: saline
[10] = dose: 100.0 mg/kg/injection, schedule: Q01DX009 (ip), vehicle: Klucel (hydroxypropylcellulose) (HPC)
[11] = dose: 200.0 mg/kg/injection, schedule: Q01DX009 (ip), vehicle: Klucel (hydroxypropylcellulose) (HPC)
[12] = dose: 400.0 mg/kg/injection, schedule: Q01DX009 (ip), vehicle: Klucel (hydroxypropylcellulose) (HPC)
[13] = dose: 400.0 mg/kg/injection, schedule: Q04DX003 (ip), vehicle: acetone

With `O=[N+]([O-])c1ccc(OCCC[P+](c2ccccc2)(c2ccccc2)c2ccccc2)c(Cl)c1` the survivor count (dose: 18.0 mg/kg/injection, schedule: Q01DX009 (ip), vehicle: saline) was 5 of 6, the survivor count [1] was 3 of 6 and the survivor count (dose: 28.0 mg/kg/injection, schedule: Q01DX009 (ip), vehicle: saline) was 3 of 6. The survivor count [2] was 0 of 6, the survivor count [3] was 0 of 6 and the survivor count [4] was 1 of 6 and 2 of 6. The survivor count [5] was 4 of 6 and the survivor count [6] was 0 of 6.

`Cn1ccc(CCl)n1` was tested, and the survivor count [6] was 4 of 6.

`CC(=O)Oc1c(N)c(C)cc(C)c1F` was tested, and the survivor count (dose: 50.0 mg/kg/injection, schedule: Q01DX001 (ip), vehicle: Klucel (hydroxypropylcellulose) (HPC)) was 2 of 6, the survivor count (dose: 100.0 mg/kg/injection, schedule: Q01DX001 (ip), vehicle: Klucel (hydroxypropylcellulose) (HPC)) was 5 of 6 and the survivor count (dose: 200.0 mg/kg/injection, schedule: Q01DX001 (ip), vehicle: Klucel (hydroxypropylcellulose) (HPC)) was 0 of 6.

In the case of `O=C(N/N=C/c1ccc(Cl)cc1Cl)C(O)C(O)C(O)C(O)CO` (stereo not given), the T/C (dose: 100.0 mg/kg/injection, schedule: Q01DX009 (ip), vehicle: saline with Tween-80) is reported as 87, 88, 89, 96 % of control, the survivor count (dose: 100.0 mg/kg/injection, schedule: Q04DX003 (ip), vehicle: saline with Tween-80) is reported as 6 of 6 and the T/C [7] is reported as 89, 90, 96 % of control. For the same compound, the survivor count [7] was 3 of 3, the survivor count (dose: 200.0 mg/kg/injection, schedule: Q04DX003 (ip), vehicle: saline with Tween-80) was 6 of 6 and the T/C [8] was 88, 89, 90, 96 % of control.

`CC(=O)OCCN1CCN(CC/C=C2\c3ccccc3Sc3ccc(Cl)cc32)CC1` was tested, and the T/C (dose: 10.0 mg/kg/injection, schedule: Q01DX009 (ip), vehicle: saline) was 136 % of control, the T/C (dose: 20.0 mg/kg/injection, schedule: Q01DX009 (ip), vehicle: saline) was 130 % of control and the survivor count (dose: 25.0 mg/kg/injection, schedule: Q01DX009 (ip), vehicle: saline) was 5 of 6. The T/C [2] was 125 % of control, the survivor count (dose: 50.0 mg/kg/injection, schedule: Q01DX009 (ip), vehicle: saline) was 1 of 6 and the T/C [3] was 132 % of control. The survivor count (dose: 80.0 mg/kg/injection, schedule: Q01DX009 (ip), vehicle: saline) was 3 of 6 and 6 of 6, the survivor count (dose: 100.0 mg/kg/injection, schedule: Q01DX009 (ip), vehicle: saline) was 0 of 6 and the T/C [4] was 127 and 129 % of control. The survivor count [5] was 3 of 6, the survivor count [9] was 0 of 4 and the survivor count [6] was 0 of 6.

With `Nc1nc(=S)c2[nH]c(N=Nc3ccc(S(=O)(=O)Nc4cnc5ccccc5n4)cc3)nc2[nH]1` the survivor count [10] was 6 of 6, the survivor count [11] was 3 of 6 and the survivor count [12] was 1 of 6.

`Cc1cccc(S(=O)(=O)F)c1` was tested, and the survivor count [13] was 1 of 6.

With `CC1CN1C1=C(Cl)C(=O)C(N2CC2C)=C(Cl)C1=O` (stereo not given) the survivor count (dose: 25.0 mg/kg/injection, schedule: Q01DX009 (ip), vehicle: Klucel (hydroxypropylcellulose) (HPC)) was 0 of 6, the survivor count (dose: 50.0 mg/kg/injection, schedule: Q01DX009 (ip), vehicle: Klucel (hydroxypropylcellulose) (HPC)) was 0 of 6 and the survivor count [10] was 0 of 6. For the same compound, the survivor count [11] was 0 of 6.

In the case of `C1CNC(NC23CC4CC(CC(C4)C2)C3)=N1`, the survivor count [11] is reported as 0 of 6 and the survivor count [12] is reported as 0 of 6.

`Cc1cc(C(=O)C[n+]2ccccc2)c(CN2C(=O)c3ccccc3C2=O)c(=O)n1C` was tested, and the survivor count (dose: 200.0 mg/kg/injection, schedule: Q01DX001 (ip), vehicle: water) was 2 of 6 and the survivor count (dose: 400.0 mg/kg/injection, schedule: Q01DX001 (ip), vehicle: water) was 0 of 6.

`CCCCCCCCC(C(=O)c1ccccc1)C(O)(C(F)(F)F)C(F)(F)F` (stereo not given) was tested, and the survivor count [8] was 3 of 6.

`COc1cccc(CN(C)C)c1C(O)c1ccccc1` (stereo not given) was tested, and the survivor count (dose: 400.0 mg/kg/injection, schedule: Q01DX001 (ip), vehicle: carboxymethylcellulose (CMC)) was 2 of 4.

In the case of `O=c1ccccc(Br)c1O`, the survivor count [13] is reported as 0 of 6.

With `O=C1C(Cl)=CC(=NS(=O)(=O)c2ccccc2)C=C1Cl` the survivor count (dose: 25.0 mg/kg/injection, schedule: Q01DX009 (ip), vehicle: saline with Tween-80) was 2 of 6.

For `Nc1cc(N)c2cccnc2c1O`, the survivor count (dose: 8.0 mg/kg/injection, schedule: Q01DX015 (ip), vehicle: saline) was 3 of 6, the survivor count (dose: 16.0 mg/kg/injection, schedule: Q01DX015 (ip), vehicle: saline) was 0 of 6 and the survivor count (dose: 100.0 mg/kg/injection, schedule: Q01DX001 (ip), vehicle: saline) was 0 of 6. The survivor count (dose: 200.0 mg/kg/injection, schedule: Q01DX001 (ip), vehicle: saline) was 0 of 6 and the survivor count [9] was 0 of 6.

`Cc1ccc(C[As+](c2ccccc2)(c2ccccc2)c2ccccc2)cc1` was tested, and the survivor count (dose: 75.0 mg/kg/injection, schedule: Q01DX001 (ip), vehicle: saline) was 0 of 6, the survivor count (dose: 150.0 mg/kg/injection, schedule: Q01DX001 (ip), vehicle: saline) was 0 of 6 and the survivor count (dose: 300.0 mg/kg/injection, schedule: Q01DX001 (ip), vehicle: saline) was 0 of 6.

With `O=C(CCCN1CCC(O)(c2ccc(C(F)(F)F)cc2)CC1)c1ccc(N2CCC(O)CC2)cc1` the survivor count (dose: 50.0 mg/kg/injection, schedule: Q04DX002 (ip), vehicle: saline with Tween-80) was 3 of 3.

In the case of `NCCCC(=O)NCCCCCCCCCCNC(=O)CCCN`, the survivor count (dose: 100.0 mg/kg/injection, schedule: Q01DX012 (ip), vehicle: saline) is reported as 6 of 6.

With `CN1CCC=C(CN2c3ccccc3Sc3ccc(Cl)cc32)C1` the T/C [1] was 128 % of control, the survivor count [4] was 6 of 6 and the survivor count [5] was 2 of 6. The survivor count [6] was 0 of 6.
